{"source": "patent US8041515B2", "about": "“Use of impedance-based cytological profiling to classify cellular response profiles upon exposure to biologically active agents” (Acea Biosciences, Inc., priority 2006, dated 2011)", "key": {"Phospho-Histone H3": {"test_system": "Phospho-Histone H3", "assay": "Phospho-Histone H3 staining", "format": "cell-based", "details": "correlates with the long-term response"}, "[1]": {"test_system": "voltage-gated calcium channels", "assay": "assay designed to assess calcium uptake through voltage-gated calcium channels (mean relative fluorescence of a calcium dye)", "format": "cell-based", "details": "varying amounts of compound"}, "[2]": {"assay": "impedance-based cell response profile of Monastrol (FIG. 10)"}}, "note": "Entries after “also recorded” stand apart in the source; their conditions may differ. At least one structure is not confirmed: it was looked up by name or label, or the drawing left a doubt.", "data": [{"smiles": "CCOC(=O)C1=C(C)NC(=S)NC1c1cccc(O)c1", "note": "(centres unmarked) [Monastrol]", "values": [{"measurement": "Phospho-Histone H3 staining", "setting": "Phospho-Histone H3", "value": "staining of mitotically arrested cells"}, {"measurement": "modulation of voltage-gated calcium channel activity", "setting": "[1]", "value": "can modulated voltage-gated calcium channel activity"}, {"measurement": "modulation of voltage-gated calcium channel activity", "setting": "[1]; listed as Manastrol", "value": "modulation of voltage-gated calcium channels"}, {"measurement": "long term response profile (long term curve)", "setting": "[2]; long term after compound addition", "value": "indicative of anti-mitotic signature; also recorded: indicative of mitotic arrest"}, {"measurement": "short term response profile (short term curve)", "setting": "[2]; short term after compound addition, comparison to known reference compounds", "value": "indicative a calcium pathway modulator; also recorded: indicative of modulation of a calcium pathway"}]}]}
